Reference: the supplement of paper PMC12009310
Structures can show the parent of a compound that is named as a salt. ± gives the standard deviation of the averaged measurements. The list shows a part of the results. Plates or batches differ in their baseline, so values are only roughly comparable.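 Cells from a mouse kidney inner medullary collecting duct line received siRNA against the ciliary gene Rpgrip1l or a non-targeting control. Primary scores are two-run means relative to batch controls. Follow-up hits increased cilia by 2 or more over their matched control; compounds reducing cell number by at least 2 were dropped. The cells are a mouse kidney inner medullary collecting duct line, silenced either for the ciliary gene Rpgrip1l or with a non-targeting control siRNA.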

Assays:
[1] = test system: mIMCD3; assay: robust z score of cell number vs plate controls; higher = more cells (less cytotoxic); details: 10 µM, 48 h
[2] = test system: mIMCD3; assay: robust z score of cilia incidence (% cells with single cilium) vs plate controls; higher = more ciliated cells; details: 10 µM; 48 h; siRNA: siScr
[3] = test system: mIMCD3; assay: robust z score of cilia incidence (% cells with single cilium) vs plate controls; higher = more ciliated cells (rescue of cilia loss); details: 10 µM; 48 h; siRNA: siRpgrip1l
[4] = test system: mIMCD3; assay: robust z cell number difference from vehicle control (robust z score difference); higher = more cells; details: 10 µM, 48 h
[5] = test system: mIMCD3; assay: robust z cilia incidence difference from vehicle control (robust z score difference); higher = more ciliated cells; details: 10 µM; 48 h; siRNA: siScr
[6] = test system: mIMCD3; assay: robust z cilia incidence difference from vehicle control (robust z score difference); higher = more ciliated cells (rescue); details: 10 µM; 48 h; siRNA: siRpgrip1l

Row | SMILES | robust z score of cell number ([1]; siRNA: siRpgrip1l) | robust z score of cell number ([1]; siRNA: siScr) | robust z score of cilia incidence [2] | robust z score of cilia incidence [3] | robust z cell number difference ([4]; siRNA: siRpgrip1l) | robust z cell number difference ([4]; siRNA: siScr) | robust z cilia incidence difference [5] | robust z cilia incidence difference [6]
1 | Clc1cccc(SC2CCNCC2)n1 [Anpirtoline hydrochloride] | 2.29 ± 0.52 | -0.782 ± 1.5 | -1.56 ± 2.3 | -6.28 ± 1.8 | – | – | – | –
2 | CCOc1cncc(/C=C/CCNC)c1 [TC 2559 difumarate] | -2.47 ± 2.5 | -2.01 ± 4.8 | -6.11 ± 9.3 | -5.91 ± 1.1 | 1.06 | -3.46 ± 5.7 | -2.27 ± 12 | 1.81
3 | COc1ccc(C[C@H]2NC[C@H](O)[C@H]2OC(C)=O)cc1 [Anisomycin] | -62.1 ± 53 | -51.3 ± 2.2 | -75.9 ± 6.8 | -42.3 ± 6.6 | – | – | – | –
4 | CO[C@]12C[C@@H](COC(=O)c3cncc(Br)c3)CN(C)[C@@H]1Cc1cn(C)c3cccc2c13 [Nicergoline] | -10.1 ± 13 | 10.2 ± 19 | -0.128 ± 0.61 | -7.63 ± 7.2 | -2.02 | -1.52 ± 3.3 | -2.21 ± 7 | -0.223
5 | COc1cc2c(cc1OC)C1CC(=O)C(CC(C)C)CN1CC2 (stereo not given) [Tetrabenazine] | -2.15 ± 1.4 | -9.65 ± 12 | 1.3 ± 2.6 | -6.69 ± 8.8 | -15.9 | -7.87 ± 11 | -3.2 ± 7.4 | -24.2
6 | CC[C@@H](CO)NC(=O)[C@@H]1C=C2c3cccc4[nH]cc(c34)C[C@H]2N(C)C1 [Methylergometrine maleate] | 3.09 ± 6.8 | -2.31 ± 4.5 | 4.23 ± 4.8 | -7.27 ± 5.5 | -9.51 | -7.29 ± 1.5 | -1.02 ± 0.92 | -8.6
7 | CC(=O)N1CC[N+](C)(C)CC1 [4-Acetyl-1,1-dimethylpiperazinium iodide] | -8.12 ± 16 | 2.35 ± 1.8 | 1.63 ± 1.7 | -10.6 ± 9.4 | – | – | – | –
8 | COc1ccc(CCN2CCC(Nc3nc4ccccc4n3Cc3ccc(F)cc3)CC2)cc1 [Astemizole] | -31.5 ± 30 | -14.6 ± 13 | -24.4 ± 14 | -25.7 ± 7.9 | – | – | – | –
9 | c1ccc(CCCCN2CCC(c3ccccc3)CC2)cc1 [4-PPBP maleate] | -65.5 ± 44 | -100 ± 89 | -17.6 ± 2.8 | -52 ± 5.5 | – | – | – | –
10 | C=CCN1CC[C@]23c4c5ccc(O)c4O[C@H]2/C(=N/NC(=O)c2ccccc2)CC[C@@]3(O)[C@H]1C5 [Naloxone benzoylhydrazone] | -22.3 ± 25 | -3.07 ± 1.5 | 2.02 ± 2.5 | -8.09 ± 1.6 | – | – | – | –
11 | CCOC(=O)c1ncn2c1CN(C)C(=O)c1cc(N=[N+]=[N-])ccc1-2 | -5.07 ± 0.25 | 1.64 ± 5.1 | 1.84 ± 2.3 | -15.1 ± 8.6 | – | – | – | –
12 | O=C(O)CCC(CP(=O)(O)O)C(=O)O (stereo not given) [PMPA (NAALADase inhibitor)] | -7.13 ± 4.3 | 0.649 ± 2.2 | 0.0528 ± 8.5 | -5.8 ± 0.92 | 0.609 | -1 ± 4.1 | 3.35 ± 3 | 3.1
13 | CC[N+](CC)(CCCNC1=CC(=O)C(NCCC[N+](CC)(CC)Cc2ccccc2)=CC1=O)Cc1ccccc1 [Benzoquinonium dibromide] | -5.11 ± 8 | 6.03 ± 0.14 | 0.436 ± 0.93 | -10.6 ± 11 | – | – | – | –
14 | Cc1ncc(CN2CC=C(c3ccccc3)CC2)c(N)n1 | -2.44 ± 3.8 | -5.59 ± 6.6 | -13.8 ± 17 | -15.8 ± 13 | – | – | – | –
15 | CC(C)(C)OC(=O)c1ncn2c1[C@@H]1CCCN1C(=O)c1c(Br)cccc1-2 [Bretazenil] | -13.2 ± 4 | -5.12 ± 0.087 | -7.67 ± 5.2 | -13.7 ± 6.9 | – | – | – | –
16 | CC(=O)C1=C(O)[C@@H]2[C@H]3c4c[nH]c5cccc(c45)C[C@H]3C(C)(C)N2C1=O [Cyclopiazonic Acid] | -33.7 ± 29 | -25.4 ± 3.6 | 0.701 ± 9.2 | -19.9 ± 5.6 | – | – | – | –
17 | O=c1[nH]oc2c1CCNC2 [THIP hydrochloride] | 0.148 ± 0.88 | 2.72 ± 3.8 | -1.02 ± 1.2 | -5.93 ± 0.96 | – | – | – | –
18 | CCC[C@@H]1CC2=CC(=O)CC[C@]2(C)[C@H]2CC[C@@]3(C)[C@@H](CC[C@@]3(O)CCC(=O)O)[C@H]12 | -14.2 ± 8.9 | -13.8 ± 5.6 | -39 ± 41 | -46.4 ± 24 | – | – | – | –
19 | COc1ccc2c(c1)c(CCN1CCOCC1)c(C)n2C(=O)c1cccc(Cl)c1Cl | -29.9 ± 15 | -27.5 ± 4.8 | -36.8 ± 31 | -26.6 ± 14 | – | – | – | –
20 | CN1C[C@H](CNC(=O)OCc2ccccc2)C[C@@H]2c3cccc4c3c(cn4C)C[C@H]21 [Metergoline] | -49.4 ± 27 | -86.8 ± 63 | -14 ± 4.3 | -40.1 ± 4 | – | – | – | –
21 | c1ccc2nc(N3CCNCC3)ccc2c1 [Quipazine dimaleate] | -9.19 ± 11 | -3.52 ± 6.3 | -0.982 ± 0.6 | -11.9 ± 5 | – | – | – | –
22 | CC12NC(Cc3ccccc31)c1ccccc12 (single isomer, unassigned; (+)) [(+)-MK 801 maleate] | -2.04 ± 0.76 | -5.38 ± 7.3 | -3.26 ± 1.7 | -7.96 ± 1.9 | – | – | – | –
23 | NCCc1c[nH]c2ccc(C(N)=O)cc12 [5-Carboxamidotryptamine maleate] | -3.8 ± 4.5 | -7.55 ± 5.9 | 0.356 ± 4 | -5.54 ± 3 | – | – | – | –
24 | O=C(O)Cc1cccnc1C(=O)O [Homoquinolinic acid] | -5.56 ± 10 | 0.22 ± 1.2 | 0.707 ± 0.21 | -9.1 ± 7.1 | – | – | – | –
25 | Oc1ccc2c3c1O[C@H]1c4[nH]c5ccccc5c4C[C@@]4(O)[C@@H](C2)N(CC2CC2)CC[C@]314 [Naltrindole hydrochloride] | -3.72 ± 1.1 | -1.09 ± 3 | 1.29 ± 0.36 | -5.39 ± 1 | – | – | – | –

Entries shown so far that contain an NH in an aromatic ring, in the order listed:
Row | SMILES | robust z score of cell number ([1]; siRNA: siRpgrip1l) | robust z score of cell number ([1]; siRNA: siScr) | robust z score of cilia incidence [2] | robust z score of cilia incidence [3] | robust z cell number difference ([4]; siRNA: siRpgrip1l) | robust z cell number difference ([4]; siRNA: siScr) | robust z cilia incidence difference [5] | robust z cilia incidence difference [6]
6 | CC[C@@H](CO)NC(=O)[C@@H]1C=C2c3cccc4[nH]cc(c34)C[C@H]2N(C)C1 [Methylergometrine maleate] | 3.09 ± 6.8 | -2.31 ± 4.5 | 4.23 ± 4.8 | -7.27 ± 5.5 | -9.51 | -7.29 ± 1.5 | -1.02 ± 0.92 | -8.6
16 | CC(=O)C1=C(O)[C@@H]2[C@H]3c4c[nH]c5cccc(c45)C[C@H]3C(C)(C)N2C1=O [Cyclopiazonic Acid] | -33.7 ± 29 | -25.4 ± 3.6 | 0.701 ± 9.2 | -19.9 ± 5.6 | – | – | – | –
17 | O=c1[nH]oc2c1CCNC2 [THIP hydrochloride] | 0.148 ± 0.88 | 2.72 ± 3.8 | -1.02 ± 1.2 | -5.93 ± 0.96 | – | – | – | –
23 | NCCc1c[nH]c2ccc(C(N)=O)cc12 [5-Carboxamidotryptamine maleate] | -3.8 ± 4.5 | -7.55 ± 5.9 | 0.356 ± 4 | -5.54 ± 3 | – | – | – | –
25 | Oc1ccc2c3c1O[C@H]1c4[nH]c5ccccc5c4C[C@@]4(O)[C@@H](C2)N(CC2CC2)CC[C@]314 [Naltrindole hydrochloride] | -3.72 ± 1.1 | -1.09 ± 3 | 1.29 ± 0.36 | -5.39 ± 1 | – | – | – | –
